From patent publication US7153930B1, “Peptide transport” (priority 1999, dated 2006)
Part of at least one peptide drawing is inferred or uncertain, most often the ends. Residues, ends and D or L forms follow the SMILES beside them. *: point of attachment. Cholyl = C[C@H](CCC(=O)*)[C@H]1CC[C@H]2[C@@H]3[C@H](O)C[C@@H]4C[C@H](O)CC[C@]4(C)[C@H]3C[C@H](O)[C@]12C

System: gastric acid secretion
Experiment: Gastric acid secretion in anaesthetized rats after I.V., intra-ileal or jejunal administration of gastrin peptides (back titration of HCl)
Settings: for mean increase in gastric acid secretion: infused intra-ileally

SMILES	increase in mean peak response of gastric acid secretion (I.V. 3.3 μg kg^−1, first injection, 5 rats, P=0.001) [µmol]	increase in mean peak response of gastric acid secretion (I.V. 3.3 μg kg^−1, second injection, 5 rats, P=0.004) [µmol]	biological activity I.V. compared with unconjugated peptide (I.V., 5 rats)	mean increase in gastric acid secretion (1000 μg kg^−1 in 1.0 ml, P=0.029) [μmol 180 min^−1]	mean peak response of gastric acid secretion (I.V. 14 ng kg^−1, first injection, P=0.0001) [mmol]	mean peak response of gastric acid secretion (I.V. 14 ng kg^−1, second injection, P=0.0001) [mmol]	I.V. response compared with unconjugated peptide (I.V. on an equimolar basis (14 ng kg^−1), P<0.0036)	mean increase in gastric acid secretion (2700 μg kg^−1 in 1.0 ml, P=0.0001) [μmol 180 min^−1]
CSCC[C@H](NC(=O)[C@H](Cc1c[nH]c2ccccc12)NC(=O)CNC(=O)[C@H](Cc1ccc(O)cc1)NC(=O)[C@H](C)NC(=O)[C@H](CCC(=O)O)NC(=O)[C@H](CCC(=O)O)NC(=O)[C@H](CCC(=O)O)NC(=O)CC[C@@H](C)[C@H]1CC[C@H]2[C@@H]3[C@H](O)C[C@@H]4C[C@H](O)CC[C@]4(C)[C@H]3C[C@H](O)[C@]12C)C(=O)N[C@@H](CC(=O)O)C(=O)N[C@@H](Cc1ccccc1)C(N)=O [G10-CA, cholate-Glu-Glu-Glu-Ala-Tyr-Gly-Trp-Met-Asp-Phe-amide] (Cholyl-EEEAYGWMDF-NH2)	5.69 ± 1.46	7.32 ± 2.69	biologically much more active than G10	21.45±14.42				
CC[C@H](C)[C@H](NC(=O)[C@H](Cc1ccccc1)NC(=O)[C@H](Cc1c[nH]cn1)NC(=O)[C@H](CCC(N)=O)NC(=O)[C@@H]1CCCN1C(=O)CNC(=O)[C@H](CCC(N)=O)NC(=O)[C@@H]1CCCN1C(=O)CNC(=O)[C@H](CC(C)C)NC(=O)[C@H](CCC(=O)O)NC(=O)CC[C@@H](C)[C@H]1CC[C@H]2[C@@H]3[C@H](O)C[C@@H]4C[C@H](O)CC[C@]4(C)[C@H]3C[C@H](O)[C@]12C)C(=O)N[C@@H](C)C(=O)N[C@@H](CC(=O)O)C(=O)N[C@@H](CC(C)C)C(=O)N[C@@H](CO)C(=O)N[C@@H](CCCCN)C(=O)N[C@@H](CCCCN)C(=O)N[C@@H](CCC(N)=O)C(=O)N[C@@H](CCCNC(=N)N)C(=O)N1CCC[C@H]1C(=O)N1CCC[C@H]1C(=O)N[C@@H](CCSC)C(=O)N[C@@H](CCC(=O)O)C(=O)N[C@@H](CCC(=O)O)C(=O)N[C@@H](CCC(=O)O)C(=O)N[C@@H](CCC(=O)O)C(=O)N[C@@H](CCC(=O)O)C(=O)N[C@@H](C)C(=O)N[C@@H](Cc1ccc(O)cc1)C(=O)NCC(=O)N[C@@H](Cc1c[nH]c2ccccc12)C(=O)N[C@@H](CCSC)C(=O)N[C@@H](CC(=O)O)C(=O)N[C@@H](Cc1ccccc1)C(N)=O [G34-CA] (Cholyl-ELGPQGPQHFIADLSKKQRPPMEEEEEAYGWMDF-NH2)					0.254 ± 0.023	0.0004 ± 4.7e-05	significantly greater responses than G34	1.742±0.277
